Reference: patent US20050129678A1 (published 2005)
No constants are given. Whether binding was seen depends on the method and setting. Binding seen in cells or lysates may run through a third protein. Some binding calls cover weakened binding; strength is not graded here. For some assays here: Sequences can lack the tags named with a protein. Blank lines part the entries; values can stand above or below the molecule they belong to.

Amino acid sequences for entries named in this document (tags omitted).
UniProt Q04338: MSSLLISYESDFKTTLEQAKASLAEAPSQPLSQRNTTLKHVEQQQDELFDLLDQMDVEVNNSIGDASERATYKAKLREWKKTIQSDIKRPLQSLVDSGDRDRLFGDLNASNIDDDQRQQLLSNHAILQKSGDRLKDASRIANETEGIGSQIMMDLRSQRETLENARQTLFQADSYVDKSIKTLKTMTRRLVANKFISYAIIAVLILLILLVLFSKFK
UniProt P32854: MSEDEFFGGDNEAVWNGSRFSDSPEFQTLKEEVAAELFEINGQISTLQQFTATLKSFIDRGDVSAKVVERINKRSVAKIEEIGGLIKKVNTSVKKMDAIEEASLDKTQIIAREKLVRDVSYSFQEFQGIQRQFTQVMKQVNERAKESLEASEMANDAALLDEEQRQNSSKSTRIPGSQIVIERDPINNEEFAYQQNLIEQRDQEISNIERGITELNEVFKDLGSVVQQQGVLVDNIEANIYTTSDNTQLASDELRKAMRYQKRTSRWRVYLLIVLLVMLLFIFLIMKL

Key:
[1] = target: Ymr197C-Vti1 (GST fusion on the yeast proteome microarray) (yeast) (UniProt Q04338); test: co-purification of endogenous Pep12 with the GST fusion, Western blot with anti-Pep12
GST-Yil033C = target: T1, GST-Yil033C (yeast, UniProt P07278 1-416); test: co-purification with the GST fusion, Western blot with anti-Tpk1
T1 construct: also called Yil033C-Bcy1; Yil033C-Bcyl; not shown: glutathione S-transferase (GST) fusion tag
T1 sequence (looked up): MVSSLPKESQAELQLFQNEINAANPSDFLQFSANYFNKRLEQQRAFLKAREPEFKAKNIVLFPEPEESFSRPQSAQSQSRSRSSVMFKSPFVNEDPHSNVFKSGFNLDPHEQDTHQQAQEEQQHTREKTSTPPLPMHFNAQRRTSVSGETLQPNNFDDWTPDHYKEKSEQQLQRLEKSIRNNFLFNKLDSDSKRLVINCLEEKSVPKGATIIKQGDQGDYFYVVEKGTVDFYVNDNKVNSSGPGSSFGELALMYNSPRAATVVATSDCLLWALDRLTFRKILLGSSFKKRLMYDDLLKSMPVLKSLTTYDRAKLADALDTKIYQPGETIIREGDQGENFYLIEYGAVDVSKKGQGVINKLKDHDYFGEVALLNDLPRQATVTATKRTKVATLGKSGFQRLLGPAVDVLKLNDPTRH

binding [1]: binds
Molecule: endogenous Pep12 (from UniProt P32854 1-288)

binding (GST-Yil033C): binds
B1: endogenous Tpk1 (enzyme, yeast, UniProt P06244 2-397, looked up)
chain: STEEQNGGGQKSLDDRQGEESQKGETSERETTATESGNESKSVEKEGGETQEKPKQPHVTYYNEEQYKQFIAQARVTSGKYSLQDFQILRTLGTGSFGRVHLIRSRHNGRYYAMKVLKKEIVVRLKQVEHTNDERLMLSIVTHPFIIRMWGTFQDAQQIFMIMDYIEGGELFSLLRKSQRFPNPVAKFYAAEVCLALEYLHSKDIIYRDLKPENILLDKNGHIKITDFGFAKYVPDVTYTLCGTPDYIAPEVVSTKPYNKSIDWWSFGILIYEMLAGYTPFYDSNTMKTYEKILNAELRFPPFFNEDVKDLLSRLITRDLSQRLGNLQNGTEDVKNHPWFKEVVWEKLLSRNIETPYEPPIQQGQGDTSQFDKYPEEDINYGVQGEDPYADLFRDF
notes: Untagged yeast Tpk1 found in a GST fusion preparation; also called Tpk1wt; a protein with the same molecular weight as Tpk1
